{"source": "paper PMC12040169", "about": "(PLOS Biology, 2025)", "note": "Some of the results follow."}
{"test_system": "T1, CTL2-GFP (C. trachomatis L2/434/Bu, GFP-expressing)", "T1 construct": "L2/434/Bu, GFP-expressing", "set-up": "species or system HeLa; Intracellular C. trachomatis growth in HeLa cells, bulk GFP fluorescence relative to DMSO", "conditions": "bulk GFP, single well; 28.5 h, 10 µM; inhibitor", "units": {"% of control remaining": "%"}}
{"compound": "CC1(C)CC(=O)c2sc(NC(=O)c3ccccc3)nc2C1", "note": "[CBK287318]", "% of control remaining": 124.586}
{"compound": "COc1ccc(CN2CC[C@@H]3[C@H](C2)[C@@H](c2ccc(F)cc2)CN3C(=O)c2ccccc2)cc1", "note": "[CBK286290]", "% of control remaining": 67.7471}
{"compound": "C1=NC2C(COCc3ccccc3)CCC2N1c1ccccc1", "note": "(stereo not drawn) [CBK010679]", "% of control remaining": 113.638}
{"compound": "COc1ccc2cc(CNc3ccc(F)c([N+](=O)[O-])c3)c(Cl)nc2c1", "note": "[CBK295133]", "% of control remaining": 164.126}
{"compound": "O=C(O)c1cc(-c2ccc3c(c2)OCCO3)nc2ccccc12", "note": "[CBK262422]", "% of control remaining": 120.273}
{"compound": "CCCCN(C)C(=O)Cn1nc(C)c2ccccc2c1=O", "note": "[CBK305050]", "% of control remaining": 109.878}
{"compound": "Fc1ccccc1CSc1nc2ncccc2[nH]1", "note": "[CBK287883]", "% of control remaining": 103.231}
{"compound": "Cn1nc(C(C)(C)C)cc1C(=O)N1CCNC(=O)C1Cc1ccc(-c2cccs2)cc1", "note": "(stereo not drawn) [CBK285810]", "% of control remaining": 133.649}
{"compound": "COc1ccccc1NC(=O)CSc1nnc(-c2ccncc2)o1", "note": "[CBK287743]", "% of control remaining": 140.019}
{"compound": "CCC(CO)NC(=O)c1cnc(-c2cccc(C)c2)c(-c2ccc(OC)cc2)c1", "note": "(stereo not drawn) [CBK037460]", "% of control remaining": 177.777}
{"compound": "Cc1[nH]c2ccccc2c1/C=C1/SC(=S)N(CC(=O)O)C1=O", "note": "[CBK262220]", "% of control remaining": 100}
{"compound": "O=C(Nc1ccccc1C(=O)O)c1cccc(-n2cnnc2)c1", "note": "[CBK269769]", "% of control remaining": 120.149}
{"compound": "CC(=O)Nc1ccc(NC(=O)C2COc3ccccc3O2)cc1C", "note": "(stereo not drawn) [CBK269898]", "% of control remaining": 105.085}
{"compound": "COc1ccc(C)cc1S(=O)(=O)N(C)CC(=O)O", "note": "[CBK267863]", "% of control remaining": 133.741}
{"compound": "Cc1nccn1CCCn1cncc1-c1ccc2c(c1)CCCN2C", "note": "[CBK282962]", "% of control remaining": 104.744}
{"compound": "CN(C)CCNc1nccc2sc(S(=O)(=O)NCCC3=CCCCC3)cc12", "note": "[CBK038244C]", "% of control remaining": 117.245}
{"compound": "COc1cc(C2c3c(oc4ccc(Cl)cc4c3=O)C(=O)N2CC2CCCO2)ccc1OCc1ccccc1", "note": "(stereo not drawn) [CBK267581]", "% of control remaining": 131.293}
{"compound": "CC(C)c1ccc(S(=O)(=O)N(C)Cc2cccnc2)cc1", "note": "[CBK043582]", "% of control remaining": 83.6089}
{"compound": "O=S(=O)(c1ccccc1)c1cn2ccnc2c(N2CCNCC2)n1", "note": "[CBK200021T]", "% of control remaining": 90.9431}
{"compound": "CC(=O)Nc1ccc(C(=O)N2CCC(c3cccc(Cc4ccccc4Cl)n3)CC2)cc1", "note": "[CBK286111]", "% of control remaining": 121.293}
{"compound": "O=C1CCN(Cc2ccccc2)CCN1Cc1cccc(F)c1", "note": "[CBK284466]", "% of control remaining": 137.695}
{"compound": "CCC(=O)NC(NC(=S)Nc1cccc2cccnc12)C(Cl)(Cl)Cl", "note": "(stereo not drawn) [CBK261027]", "% of control remaining": 100}
{"compound": "O=C(c1ccc2c(c1)C(=O)N(c1ccncc1)C2=O)c1ccc2c(c1)C(=O)N(c1ccncc1)C2=O", "note": "[CBK261194]", "% of control remaining": 100}
{"compound": "COC(=O)c1ccccc1NC(=O)CC1Nc2ccccc2NC1=O", "note": "(stereo not drawn) [CBK269276A]", "% of control remaining": 119.229}
{"compound": "COc1ccc(-c2nnc3ccc(SC(C)C)nn23)cc1OC", "note": "[CBK287526]", "% of control remaining": 124.229}
{"compound": "CCn1cc(CC(=O)NCCn2ccc(C)n2)c2ccccc21", "note": "[CBK282670]", "% of control remaining": 106.724}
{"compound": "CCn1c(SCC(=O)N2CCC(C(N)=O)(N3CCCCC3)CC2)nnc1-c1ccccc1", "note": "[CBK266135]", "% of control remaining": 130.98}
{"compound": "Cc1nonc1NC(=O)CN1CCCCC1", "note": "[CBK261839]", "% of control remaining": 116.171}
{"compound": "Nc1nccn(CCOc2cc(F)c(F)cc2F)c1=O", "note": "[CBK138204T]", "% of control remaining": 178.487}
{"compound": "COCC(=O)N[C@H]1C[C@H]2C(=O)Nc3ccc(/C=C/c4ccccc4)cc3C(=O)N2C1", "note": "[CBK289366]", "% of control remaining": 8.922}
{"compound": "O=C(c1cccs1)N1CCC(c2nnc3n2CCCCC3)CC1", "note": "[CBK284626]", "% of control remaining": 109.715}
{"compound": "O=S(=O)(Nc1nnc(C(F)(F)F)s1)c1ccc(-c2cc(C(F)(F)F)on2)s1", "note": "[CBK062019]", "% of control remaining": 89.7676}
{"compound": "O=C(O)C1CC=CCC1C(=O)Nc1ccc(CN2CCOCC2)cc1", "note": "(stereo not drawn) [CBK299786]", "% of control remaining": 99.3001}
{"compound": "CNC(=O)CSc1nnc(COc2cccc3ccccc23)n1-c1ccccc1", "note": "[CBK266043]", "% of control remaining": 165.97}
{"compound": "Cc1cccc(Cn2c(=O)c3cnc(-c4ccncc4)nc3n(C)c2=O)c1", "note": "[CBK288593]", "% of control remaining": 120.192}
{"compound": "O=c1c2c3c(sc2ncn1CC(O)COc1ccc(F)cc1)CCC3", "note": "(stereo not drawn) [CBK295191]", "% of control remaining": 127.191}
{"compound": "O=c1[nH]c2ncc(-c3ccco3)nc2n1CCc1cccnc1", "note": "[CBK064494]", "% of control remaining": 162.645}
{"compound": "COc1ccccc1Cc1cccc(C2CCCN2C(=O)CCc2ccccc2)n1", "note": "(stereo not drawn) [CBK286229]", "% of control remaining": 76.5908}
{"compound": "Cc1c(C(=O)Nc2cccc(C(F)(F)F)c2)sc2nc(-c3ccccc3)cn12", "note": "[CBK294408]", "% of control remaining": 169.136}
{"compound": "CC1(C)CC(=O)C2=C(C1)c1c(ccc3ccccc13)NC2c1ccc(-c2ccc(O)c(C(=O)O)c2)o1", "note": "(stereo not drawn) [CBK261823]", "% of control remaining": 76.6137}
{"compound": "C[C@@H](Cn1nnc2ccccc21)NC(=O)c1cccs1", "note": "[CBK284322]", "% of control remaining": 115.6}
{"compound": "CCOC(=O)c1cccc(NS(=O)(=O)c2ccc(-c3ccccc3)cc2)c1", "note": "[CBK034341]", "% of control remaining": 111.631}
{"compound": "CC(=O)Nc1ccc(N(CC(O)Cn2c3ccccc3c3ccccc32)S(C)(=O)=O)cc1", "note": "(stereo not drawn) [CBK264352]", "% of control remaining": 129.782}
{"compound": "CC(C)CCN[C@H]1CO[C@H]2[C@@H]1OC[C@@H]2n1nnnc1-c1ccccc1", "note": "[CBK289537]", "% of control remaining": 121.538}
{"compound": "O=C(Cc1ccc(F)cc1)N1CCC(n2cnc3cccnc32)CC1", "note": "[CBK283574]", "% of control remaining": 90.3087}
{"compound": "c1ccc2nc(N3CCCC3)c(Sc3nc[nH]n3)nc2c1", "note": "[CBK115265]", "% of control remaining": 133.712}
{"compound": "CC(C)n1c(=O)oc2cc(S(=O)(=O)NC(c3ccccc3)c3ccccc3)ccc21", "note": "[CBK286350]", "% of control remaining": 73.0261}
{"compound": "OC(CN1CCC(O)(c2ccccc2F)CC1)c1ccc(Cl)cc1", "note": "(stereo not drawn) [CBK283312]", "% of control remaining": 130.092}
{"compound": "Cc1[nH]c2ccccc2c1/C=N/c1ccc(/N=C/c2c(C)[nH]c3ccccc23)cc1", "note": "[CBK261226]", "% of control remaining": 100}
{"compound": "COCC(O)CN(C)C(=O)c1ccc(Oc2cccc(Br)c2)nc1", "note": "(stereo not drawn) [CBK304229]", "% of control remaining": 74.86}
{"compound": "O=C1CC(c2ccco2)CC(=O)C1=CNCCN1CCN(C(=O)Nc2ccc(Cl)cc2)CC1", "note": "(stereo not drawn) [CBK264743]", "% of control remaining": 100}
{"compound": "O=S(=O)(Nc1nnn[nH]1)c1ccc(-c2ccccc2)cc1", "note": "[CBK062381]", "% of control remaining": 100}
{"compound": "Cc1nn(CC(=O)N2CCCCCC2)c(=O)c2cc3occc3n12", "note": "[CBK283624]", "% of control remaining": 89.0267}
{"compound": "Cn1ncc(N2CCC(CNC(=O)c3ccccc3Cl)C2)cc1=O", "note": "(stereo not drawn) [CBK306747]", "% of control remaining": 118.628}
{"compound": "CCc1nnc2ccc(NCc3ccccc3)nn12", "note": "[CBK287888]", "% of control remaining": 69.3418}
{"compound": "CCOC(=O)CCCNC(=O)N1CCCC(C(=O)O)C1", "note": "(stereo not drawn) [CBK161374]", "% of control remaining": 93.0895}
{"compound": "c1cnc(-c2ccc3c(c2)OCO3)c(OC2CCCCC2)n1", "note": "[CBK106706]", "% of control remaining": 100}
{"compound": "CC(C)(C)C1=CC2=NC3(CCCCC3)[C@@H]3C[C@@H](O)[C@@H](O)[C@@H]3N2O1", "note": "[CBK303235]", "% of control remaining": 133.167}
{"compound": "O=C(c1ccccc1)N1C[C@H](c2ccsc2)[C@H]2CN(Cc3cccs3)CC[C@H]21", "note": "[CBK285623]", "% of control remaining": 100.338}
{"compound": "CN(Cc1ccc2c(c1)OCO2)C(=O)c1cnn2c(-c3ccccc3)ccnc12", "note": "[CBK298276]", "% of control remaining": 137.319}
{"compound": "Cc1cc(C)c(C)c(S(=O)(=O)NCc2ccc(C(=O)Nc3ccncc3)cc2)c1C", "note": "[CBK267193]", "% of control remaining": 90.0126}
{"compound": "CC(=O)NCCNC(=O)c1ccc(-c2cnc(OCC3CCN(C(=O)OC(C)(C)C)CC3)nc2)cn1", "note": "[CBK170023]", "% of control remaining": 107.881}
{"compound": "COc1ccc(N(CCC#N)S(=O)(=O)c2cccc3nsnc23)cc1", "note": "[CBK025851]", "% of control remaining": 78.4601}
{"compound": "O=C(O)/C=C/C(=O)Nc1ccccc1Br", "note": "[CBK086488]", "% of control remaining": 111.365}
{"compound": "O=C(CN1CCCCCC1=O)NCC(CO)Cc1ccsc1", "note": "(stereo not drawn) [CBK306763]", "% of control remaining": 103.985}
{"compound": "Cc1cc(-c2cn3cc(C(=O)N(C)CC(C)O)nc3c(=O)n2C)c(C)o1", "note": "(stereo not drawn) [CBK307154]", "% of control remaining": 137.794}
{"compound": "CCOC(=O)N1CCCN(C(=O)OCC)CC1", "note": "[CBK034324]", "% of control remaining": 111.873}
{"compound": "N#Cc1cccnc1N1CCC(NC(=O)c2ccc3nccn3c2)CC1", "note": "[CBK306566]", "% of control remaining": 85.6608}
{"compound": "O=C(Cc1ccccc1F)N1CCC(c2cc3cccnc3[nH]2)CC1", "note": "[CBK285035]", "% of control remaining": 105.788}
{"compound": "COc1ccccc1-c1ccc(Nc2ccccc2)nc1", "note": "[CBK036909]", "% of control remaining": 139.251}
{"compound": "Cc1cccc(CN2CC[C@H]3[C@@H](C2)[C@H](c2ccsc2)CN3C(=O)c2ccc(F)cc2)c1", "note": "[CBK285639]", "% of control remaining": 102.422}
{"compound": "CC(NC(=O)c1ncoc1-c1ccc(F)cc1)c1cccnc1", "note": "(stereo not drawn) [CBK282358]", "% of control remaining": 105.404}
{"compound": "CC(Sc1ccc(Br)c2cccc(C(=O)O)c12)C(=O)O", "note": "(stereo not drawn) [CBK266226]", "% of control remaining": 129.003}
{"compound": "CC(=O)Nc1ccc(OC(=O)c2ccc(Br)o2)cc1", "note": "[CBK293917]", "% of control remaining": 102.134}
{"compound": "CCN(Cc1cnn(C)c1)S(=O)(=O)c1ccc2c(c1)CCCC(=O)N2", "note": "[CBK304782]", "% of control remaining": 131.696}
{"compound": "O=C1CCC(=O)N1CCOc1nccnc1-c1ccc2c(c1)OCO2", "note": "[CBK106698]", "% of control remaining": 152.907}
{"compound": "O=[N+]([O-])c1cccc(Cn2c(CO)nc3ccccc32)c1", "note": "[CBK297515]", "% of control remaining": 119.929}
{"compound": "Cc1ccc(S(=O)(=O)Nc2ccc(C(C)C)cc2)cc1C(=O)O", "note": "[CBK297766]", "% of control remaining": 149.936}
